Source: paper PMC7600766
Results are given in words; binding and its absence hold for the method and conditions named. Binding calls can cover weak binding; strength is not graded here. For some assays here: In cells and extracts the contact can be indirect.

Key:
[1] = target: T1, PpiD on E. coli spheroplasts (E. coli (endogenous in BL21 (DE3))) (UniProt P0ADY1); test: cross-linking; purified complex incubated with E. coli spheroplasts for 10 min with 0.5% formaldehyde at room temperature; affinity chromatography, SDS-PAGE, band of about 75 kDa analysed by MALDI; only the binder purified
T1 sequence: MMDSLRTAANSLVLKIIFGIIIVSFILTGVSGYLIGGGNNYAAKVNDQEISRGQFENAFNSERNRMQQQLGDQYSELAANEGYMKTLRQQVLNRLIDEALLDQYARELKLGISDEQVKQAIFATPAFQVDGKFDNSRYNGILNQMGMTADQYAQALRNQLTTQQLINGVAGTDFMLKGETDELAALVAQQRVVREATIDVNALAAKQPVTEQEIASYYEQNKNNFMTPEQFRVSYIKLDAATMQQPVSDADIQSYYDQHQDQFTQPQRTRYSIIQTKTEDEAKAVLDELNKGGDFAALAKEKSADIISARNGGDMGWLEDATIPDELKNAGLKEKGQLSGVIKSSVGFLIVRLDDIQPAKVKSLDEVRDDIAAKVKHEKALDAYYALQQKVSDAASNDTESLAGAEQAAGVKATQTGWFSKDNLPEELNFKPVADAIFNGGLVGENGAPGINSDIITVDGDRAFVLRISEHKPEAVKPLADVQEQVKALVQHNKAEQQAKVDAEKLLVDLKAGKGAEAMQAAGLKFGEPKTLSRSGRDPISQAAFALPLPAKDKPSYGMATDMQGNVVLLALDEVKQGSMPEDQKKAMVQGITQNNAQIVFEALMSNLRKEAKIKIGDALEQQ

[2] = target: T2, PpiD-Strep, purified and reconstituted into proteoliposomes (E. coli) (UniProt P0ADY1); test: co-sedimentation; purified PpiD in proteoliposomes (70% POPE, 30% POPG) incubated with the purified complex at room temperature for 10 min, sedimented by centrifugation; empty liposomes as control; both purified
T2 sequence: T1 sequence

In the case of “gp5Cβ–gp5.4 complex (tip fragment of the T4 central spike complex) (bacteriophage T4)”, the binding [1] was “binds” and the binding [2] was “binds weakly”.
